Test results taken from paper PMC10476265, “Optimized LC-MS/MS Method for the Detection of ppCCK(21–44): A Surrogate to Monitor Human Cholecystokinin Secretion” (Journal of Proteome Research, 2023).

Assay: ppCCK(21–44) in plasma of healthy volunteers after a standard mixed meal (Ensure), LC-MS/MS with ionKey
Type: in vivo, human
Details: EDTA plasma, mean (±SEM)

[Pyr]-QPVPPADPAGSGLQRAEEAPRRQL-acid [ppCCK(21–44), N-terminal peptide fragment of proCCK, surrogate analyte for CCK secretion]
ppCCK(21–44) plasma concentration, peak (healthy volunteers n = 9, 30 min after mixed liquid meal (237 mL Ensure plus)): 5.9 pmol/L | ppCCK(21–44) plasma concentration, baseline (healthy volunteers n = 9, after overnight fast, just before mixed liquid meal): 1.5 pmol/L
